# Source: PubChem BioAssay AID445 (National Center for Advancing Translational Sciences (NCATS), 2006)
# The other results are listed elsewhere or left out. Further columns of the screen follow, without active or inactive calls. Most of these compounds were active or inconclusive in the main read-out, so they are no random draw. The note in brackets gives the kind of curve behind each potency; many fits are weak.
# Experiment: IkB Signaling
# Conditions: ABC-DLBCL IkBa-CBG/CBR dual luciferase ratio (green luciferase fused to IkBa over red control in OCI-Ly3 lymphoma cells), 4 h; measured here: control luc red channel unless noted
# Method in brief: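 Luminescence ratio of IκBα-fused green versus native red beetle luciferase in OCI-Ly3 cells, 4 h post-doxycycline with compound; red signal alone, scaled from basal (0%) to zero light (-100%), flagged nonspecific or cytotoxic effects.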
row,Compound,AC50
1,COc1ccc(-n2c(=O)c3c(C)c(C)sc3n(Cc3ccc(F)cc3)c2=O)c(OC)c1,"25.1 µM [falling, single point]"
2,Cc1ccc(S(=O)(=O)N2CCCc3cc(NC(=O)c4ccc(C(F)(F)F)cc4)ccc32)cc1,"20 µM [falling, single point]"
3,COc1ccc(-c2noc(CSc3nnc(-c4ccncc4)n3-c3cccc(C)c3)n2)cc1OC,"39.8 µM [falling, single point]"
4,O=C(c1cc2ccccc2o1)c1nc2c(n1O)CCCCC2,"1 µM [falling, full curve]"
5,COc1ccc(CCC(=O)NCCc2csc(-c3cccc(F)c3)n2)cc1,"31.6 µM [falling, partial curve]"
6,COc1ccc(NC(=O)c2oc3ccc4c(c3c2C)C(=O)CC(C)(C)O4)cc1OC,"31.6 µM [falling, single point]"
7,CCc1ccc(OCC2c3cc(OC)c(OC)cc3CCN2C(=O)Cc2ccc(OC)c(OC)c2)cc1 (centres undefined),"31.6 µM [falling, single point]"
8,COc1cc2c(cc1NC(=O)C(C)Oc1ccc(Cl)cc1Cl)oc1ccccc12 (centres undefined),"0.0398 µM [falling, full curve, poor fit]"
9,Cc1ccc(CCNC(=O)CCCn2nc(C)c3c(C)n(-c4ccc(C)cc4)nc3c2=O)cc1,"12.6 µM [falling, partial curve]"
10,COc1ccc(CNC(=O)C2CCCN(S(=O)(=O)c3cc(C)ccc3OC)C2)cc1 (centres undefined),"12.6 µM [falling, partial curve]"
11,O=C(NCCc1ccc(Cl)cc1)c1ccc2c(c1)N(Cc1ccc(F)cc1Cl)C(=O)CS2,"15.8 µM [falling, partial curve]"
12,COc1ccc(-c2[nH]c(-c3ccccc3)nc2SCC(=O)Nc2ccc3c(c2)OCO3)cc1,"15.8 µM [falling, partial curve]"
13,O=C(CN1C(=O)NC2(CCCCCCC2)C1=O)N1CCOCC1,"3.98 µM [rising, partial curve]"
14,O=C(Nc1ccc(F)cc1)c1cccc(N2CCCS2(=O)=O)c1,"39.8 µM [falling, partial curve, poor fit]"
15,CCOc1ccccc1NC(=O)C1CCN(S(=O)(=O)Cc2ccccc2)CC1,"39.8 µM [falling, single point]"
16,Cc1cc(O)c(C(c2ccccc2Cl)N2CCCCC2)c(=O)n1Cc1ccco1 (centres undefined),"6.31 µM [falling, partial curve, poor fit]"
17,Cc1ccc(NC(=O)c2ccc3c(=O)n4nc(Nc5ccccc5C)sc4nc3c2)cc1C,"39.8 µM [falling, single point]"
18,CCc1ccc(C2N3CC4(C)CN2CC(c2ccccc2)(C3)C4=O)cc1 (centres undefined),"15.8 µM [falling, partial curve]"
19,Cc1c2cnn(CC(=O)N3CCCCC3)c(=O)c2c(C)n1Cc1ccc(Cl)cc1,"10 µM [falling, partial curve]"
20,CCn1cc(C(=O)NCc2ccccc2)c(=O)c2cc(S(=O)(=O)N3CCOCC3)ccc21,"39.8 µM [falling, single point]"

# Exported bar-delimited: 11 of the compounds above.
row | Compound | AC50
1 | COc1ccc(-n2c(=O)c3c(C)c(C)sc3n(Cc3ccc(F)cc3)c2=O)c(OC)c1 | 25.1 µM [falling, single point]
4 | O=C(c1cc2ccccc2o1)c1nc2c(n1O)CCCCC2 | 1 µM [falling, full curve]
5 | COc1ccc(CCC(=O)NCCc2csc(-c3cccc(F)c3)n2)cc1 | 31.6 µM [falling, partial curve]
6 | COc1ccc(NC(=O)c2oc3ccc4c(c3c2C)C(=O)CC(C)(C)O4)cc1OC | 31.6 µM [falling, single point]
10 | COc1ccc(CNC(=O)C2CCCN(S(=O)(=O)c3cc(C)ccc3OC)C2)cc1 (centres undefined) | 12.6 µM [falling, partial curve]
11 | O=C(NCCc1ccc(Cl)cc1)c1ccc2c(c1)N(Cc1ccc(F)cc1Cl)C(=O)CS2 | 15.8 µM [falling, partial curve]
13 | O=C(CN1C(=O)NC2(CCCCCCC2)C1=O)N1CCOCC1 | 3.98 µM [rising, partial curve]
17 | Cc1ccc(NC(=O)c2ccc3c(=O)n4nc(Nc5ccccc5C)sc4nc3c2)cc1C | 39.8 µM [falling, single point]
18 | CCc1ccc(C2N3CC4(C)CN2CC(c2ccccc2)(C3)C4=O)cc1 (centres undefined) | 15.8 µM [falling, partial curve]
19 | Cc1c2cnn(CC(=O)N3CCCCC3)c(=O)c2c(C)n1Cc1ccc(Cl)cc1 | 10 µM [falling, partial curve]
20 | CCn1cc(C(=O)NCc2ccccc2)c(=O)c2cc(S(=O)(=O)N3CCOCC3)ccc21 | 39.8 µM [falling, single point]

# The list continues.

row,Compound,AC50
1,Cc1cccc(N2CCN(C(=O)c3c4c(nc5ccccc35)C(=O)N(C3CCCCC3)C4)CC2)c1C,"39.8 µM [falling, single point]"
2,Cc1ccc(N(C)C(=O)c2noc3c2CCCCC3)cc1C,"39.8 µM [falling, single point]"
3,COc1cc(OC)c(NC(=O)C(C)n2nc(-c3ccc(C)c(C)c3)ccc2=O)cc1Cl (centres undefined),"31.6 µM [falling, partial curve]"
4,COc1cccc(NC(=O)CSc2nnc(NC(=O)NC3CCCCC3)s2)c1,"25.1 µM [falling, single point]"
5,Cc1cc(C)c(C#N)c(SCC(=O)c2cccs2)n1,"1.58 µM [falling, partial curve]"
6,Cc1ccc(-n2nc(C)c(C(=O)NCCCN3CCN(c4ccccc4F)CC3)c2-n2cccc2)cc1,"10 µM [falling, partial curve]"
7,CCOC(=O)c1cnc2c(C)cc(C)cc2c1Nc1ccc(N2CCOCC2)cc1,"12.6 µM [falling, partial curve]"
8,Cc1oc(-c2ccc(Cl)cc2)nc1CN1CCCC(C(=O)NCc2ccc(Cl)cc2)C1 (centres undefined),"15.8 µM [falling, partial curve]"
9,CCCOc1ccccc1C(=O)Nc1nc2c(s1)CCCC2,"25.1 µM [falling, partial curve]"
10,CN(Cc1ccccc1)C(=O)c1ccc2c(c1)N(Cc1ccc(Cl)cc1)C(=O)c1ccccc1S2=O (centres undefined),"12.6 µM [falling, partial curve]"
11,CCc1ccccc1N1CC(c2nc3ccccc3n2CCC2CCCCC2)CC1=O (centres undefined),"15.8 µM [falling, partial curve]"
12,Cc1nnc(N2CCC(C(=O)NCc3cccc(Cl)c3)CC2)c2nn(-c3ccccc3)c(C)c12,"39.8 µM [rising, single point] [measured here: IkB-luc green channel]"
13,Cn1c(=O)c2c(c3ccccc31)OC(=O)CC2c1ccccc1 (centres undefined),"2 µM [rising, full curve] [measured here: IkB-luc green channel]"
14,CC(C)c1ccc(NC(=O)CSC2=Nc3ccccc3C3=NC(CC(=O)NCc4ccco4)C(=O)N23)cc1 (centres undefined),"15.8 µM [falling, partial curve]"
15,c1ccc(-c2noc(-c3ccc4ccccc4c3)n2)cc1,"0.01 µM [falling, full curve]"
16,Nc1c(C(=O)NCc2ccco2)nnn1-c1ccccc1,"15.8 µM [falling, single point]"
17,Cc1ccc(CCNC(=O)c2ccc(CNS(=O)(=O)c3ccc(F)cc3)cc2)cc1,"12.6 µM [falling, single point]"
18,CCOC(=O)C1=C(CS(=O)(=O)c2ccc(F)c(C)c2)NC(=O)NC1c1ccc(F)c(F)c1 (centres undefined),"12.6 µM [falling, partial curve]"
19,CC(=O)N1CCc2c(sc(NC(=O)CSc3ccc(C)cc3)c2-c2nc3ccccc3s2)C1,"6.31 µM [rising, single point]"
